The results in this text go back to PubChem BioAssay AID1487 (National Center for Advancing Translational Sciences (NCATS), 2009).

Some of the results follow. Shown are side measurements of this screen, not its main read-out; they come without a call. The list favours compounds with an active or inconclusive main result. The note in brackets gives the kind of curve behind each potency; many fits are weak.

A short description of this assay: qHTS Assay for Modulators of Lamin A Splicing. The following applies: HeLa LMNA splicing GFP/RFP minigene ratio, 48 h. A digest of the protocol: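 S3 HeLa stable clones carrying a lamin A-EGFP splicing minigene plus DsRed2 were seeded at 600 cells/well in Opti-MEM with 2% FBS, pin-dosed and incubated 48 h at 37°C. Acumen cytometry (488 nm) gave the GFP/RFP total-intensity ratio.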

The mark [1] stands for this setting: measured here: GFP splicing reporter channel.
Where [2] appears, read: measured here: RFP viability control channel.

`Cc1cc(C)cc(N2CCN(C(=O)N3CCOCC3)CC2)c1`: the half-maximal activity concentration (AC50) by setting is: under setting [1], 35.5 µM [falling, single point]; under setting [2], 14.1 µM [falling, single point].

For the compound `Cc1c([C@@H]2C[C@H]3CN(Cc4cccc(Cl)c4)C(=O)[C@]34CCCN24)cnn1C`, the AC50 under setting [1] was 22.4 µM [rising, single point] and the AC50 under setting [2] was 20 µM [rising, single point].

`O=c1c2ccccc2cnn1-c1ccc(Br)cc1`: under setting [2], the concentration at half-maximal activity (AC50) is 0.01 µM [rising, full curve, poor fit].

`COc1ccccc1NC(=O)C(C)Sc1nnc2ccc3ccccc3n12` (stereo not drawn): the AC50 under setting [1] is 6.31 µM [falling, partial curve, poor fit] and the AC50 under setting [2] was 0.00447 µM [falling, full curve, poor fit].

As for `Cc1ccc(CNC(=O)CN2C(=O)CCn3nc(-c4ccccc4)cc32)cc1`, the AC50 under setting [2] was 0.0112 µM [falling, full curve, poor fit].

Consider `Cc1ccc(-n2ncc(C(=O)NCc3cccs3)c2C2CCN(C(=O)OC(C)(C)C)CC2)cc1`, for which the half-maximal activity concentration (AC50) under setting [2] is 12.6 µM [rising, single point].

With `OCCN(CCO)c1ccc(C(c2ccccc2Cl)c2ccc(N(CCO)CCO)cc2Cl)c(Cl)c1`, the half-maximal activity concentration (AC50) under setting [1] was 31.6 µM [falling, single point].

Take `CC(C)N=C(N)/N=C(\N)Nc1ccc(Cl)cc1`: the concentration at half-maximal activity (AC50) reads like this: under setting [1], 1 µM [falling, partial curve, poor fit]; under setting [2], 2 µM [falling, full curve, poor fit].

`C=CCCCCCCCCc1nc(=S)[nH][nH]1`: the half-maximal activity concentration (AC50) is 11.2 µM [rising, partial curve] under setting [1] and 31.6 µM [rising, single point] under setting [2].

On to `CCCCOc1ccc(C(=O)NCCc2csc(-c3cccc(F)c3)n2)cc1`, for which the AC50 under setting [1] is 0.282 µM [falling, full curve, poor fit].

As for `COc1ccccc1NC(=O)CSc1nc2ccccc2n1C(C)=O`, the AC50 reads like this: under setting [1], 15.8 µM [rising, single point]; under setting [2], 35.5 µM [rising, single point].

With `Cc1nnc(NC(=O)CSc2n[nH]c(-c3ccccc3)n2)s1`, under setting [1], the AC50 was 0.00891 µM [rising, full curve, poor fit].

In the case of `COc1cc(/C=N/NC(=O)/C(=C\c2ccc3c(c2)OCO3)NC(=O)c2ccccc2)ccc1O`, under setting [2], the AC50 is 0.316 µM [rising, full curve, poor fit].

For `O=C1c2ccccc2C(=O)C1c1ccccc1`, the AC50 under setting [1] is 1.58 µM [falling, full curve, poor fit] and the concentration at half-maximal activity (AC50) under setting [2] was 3.55 µM [falling, partial curve, poor fit].

For `CN1CCCN(S(=O)(=O)c2cccc(Cl)c2Cl)CC1`, the AC50 under setting [2] was 35.5 µM [rising, single point].

For `CCOC(=O)C1C(=O)C=C(/C=C/c2ccc(N(C)C)cc2)CC1c1ccccc1` (stereo not drawn), the AC50 under setting [2] was 15.8 µM [rising, partial curve, poor fit].

For `NC(=O)NC(=O)CSc1ccccc1`, the half-maximal activity concentration (AC50) under setting [1] was 6.31 µM [falling, partial curve, poor fit].

`COc1ccc(NC(=O)CCCn2c(=O)c3sccc3n(Cc3ccc(C)cc3C)c2=O)cc1`: the half-maximal activity concentration (AC50) under setting [2] was 35.5 µM [rising, single point].

Turning to `O=C(c1ccc(Br)s1)N(Cc1cccnc1)c1nc2ccc(F)cc2s1`, the concentration at half-maximal activity (AC50) under setting [2] is 3.16 µM [falling, single point].

On to `CCCn1nc([N+](=O)[O-])c(C(C#N)c2nc3ccccc3s2)c(Cl)c1=O` (stereo not drawn), for which the AC50 by setting is: under setting [1], 35.5 µM [falling, single point]; under setting [2], 15.8 µM [rising, single point].

In the case of `O=C(CSc1nc2ccccc2[nH]1)Nc1ccc2c(c1)OCCO2`, the AC50 under setting [2] was 22.4 µM [rising, single point].

Consider `CCOc1cccc(NC(=O)C2CC(=O)N(C)C(=Nc3ccc(F)cc3)S2)c1` (stereo not drawn), for which the AC50 reads like this: under setting [1], 39.8 µM [falling, partial curve, poor fit]; under setting [2], 8.91 µM [falling, partial curve, poor fit].

As to `COc1cccc(C(=O)N/N=C(\CC(C)C)c2ccccc2)c1`, the concentration at half-maximal activity (AC50) under setting [1] is 31.6 µM [rising, single point].

For the compound `O=C(CCCN1C(=O)/C(=C\c2ccccc2)SC1=S)Nc1ccc(O)cc1`, under setting [2], the concentration at half-maximal activity (AC50) is 28.2 µM [falling, single point].

`Cc1cccc(Nc2nc(NCc3ccco3)nc(N)c2[N+](=O)[O-])c1`: under setting [2], the AC50 is 0.501 µM [falling, full curve].

For `O=[N+]([O-])c1cccc(NC2=NCCC2)c1`, under setting [2], the concentration at half-maximal activity (AC50) was 1 µM [falling, full curve].

Consider `COc1cc(NC(=O)CN2C(=O)NC(C)(c3ccc4ccccc4c3)C2=O)c(C)cc1[N+](=O)[O-]` (stereo not drawn), for which the half-maximal activity concentration (AC50) reads like this: under setting [1], 12.6 µM [rising, single point]; under setting [2], 14.1 µM [rising, partial curve].

Consider `Cc1cc(C(=O)NCCN2CCN(c3cccc(Cl)c3)CC2)n(-c2ccccc2)n1`, for which, under setting [2], the half-maximal activity concentration (AC50) was 2.82 µM [rising, full curve].

In the case of `CCN(CCNC(=O)c1ccc(CSc2nc3ccncc3[nH]2)cc1)c1ccccc1`, the AC50 under setting [2] is 12.6 µM [rising, partial curve].

With `O=C(COC(=O)c1cnccn1)c1ccc(OC(=O)c2ccccc2)cc1`, the concentration at half-maximal activity (AC50) under setting [2] is 0.794 µM [rising, partial curve].

Turning to `O=c1oc2c(CN3CCCC3)c(O)ccc2cc1-c1ccccc1`, the AC50 under setting [1] is 0.158 µM [rising, full curve, poor fit].

On to `COC(=O)c1ccc(C)c(NS(=O)(=O)c2ccc3c(c2)OCCO3)c1`, for which the AC50 under setting [2] was 12.6 µM [rising, partial curve, poor fit].

Turning to `CC1(C)Cc2cccc(C(=O)Nc3ccncc3)c2O1`, the concentration at half-maximal activity (AC50) under setting [1] was 35.5 µM [falling, single point] and the AC50 under setting [2] was 35.5 µM [falling, single point].

In the case of `CCOc1ccccc1-c1nc(-c2ccc(NC(=O)Cc3ccccc3OC)cc2)no1`, under setting [2], the AC50 was 20 µM [rising, single point].

Consider `CCN(CC)C(=O)c1cc2sc3ccccc3c2s1`, for which the AC50 is 20 µM [rising, single point] under setting [1] and 25.1 µM [rising, partial curve] under setting [2].

In the case of `COc1ccc(CC(=O)Nc2ccc(N3CCCCC3)cc2)cc1`, under setting [1], the AC50 is 10 µM [falling, partial curve, poor fit].
